The values that follow come from publication PMC6213189, “ABD-Derived Protein Blockers of Human IL-17 Receptor A as Non-IgG Alternatives for Modulation of IL-17-Dependent Pro-Inflammatory Axis” (International Journal of Molecular Sciences, 2018).

The chains behind the UniProt entries cited, without tags or fusion partners. Where a name states a change or a piece, a line headed by the entry shows the natural chain unless it says otherwise. Residues count along the entry.
UniProt Q96F46: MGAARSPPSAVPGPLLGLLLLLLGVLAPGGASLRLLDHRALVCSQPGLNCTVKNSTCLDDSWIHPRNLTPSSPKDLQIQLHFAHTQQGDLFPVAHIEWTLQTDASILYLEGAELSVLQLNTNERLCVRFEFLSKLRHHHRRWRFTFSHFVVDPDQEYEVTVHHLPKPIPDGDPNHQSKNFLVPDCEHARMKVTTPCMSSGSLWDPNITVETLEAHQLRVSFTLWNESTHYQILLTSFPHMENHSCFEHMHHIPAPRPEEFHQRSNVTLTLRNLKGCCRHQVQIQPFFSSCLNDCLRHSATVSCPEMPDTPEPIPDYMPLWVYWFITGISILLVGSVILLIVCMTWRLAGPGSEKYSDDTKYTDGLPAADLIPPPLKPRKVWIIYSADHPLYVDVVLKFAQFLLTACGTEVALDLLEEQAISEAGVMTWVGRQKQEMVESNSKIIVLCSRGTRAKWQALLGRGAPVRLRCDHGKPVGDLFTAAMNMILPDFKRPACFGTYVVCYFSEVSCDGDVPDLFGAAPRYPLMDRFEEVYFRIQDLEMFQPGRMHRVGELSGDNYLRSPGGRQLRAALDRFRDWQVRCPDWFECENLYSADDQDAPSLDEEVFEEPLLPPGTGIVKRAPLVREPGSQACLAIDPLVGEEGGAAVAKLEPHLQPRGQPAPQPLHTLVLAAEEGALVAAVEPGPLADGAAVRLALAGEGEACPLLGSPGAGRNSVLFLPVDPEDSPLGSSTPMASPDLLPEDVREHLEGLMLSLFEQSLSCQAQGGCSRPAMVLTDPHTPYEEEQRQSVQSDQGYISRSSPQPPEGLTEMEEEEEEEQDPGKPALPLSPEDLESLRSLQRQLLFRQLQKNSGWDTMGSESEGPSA
human IL-17RA on the cell surface (human (endogenous in THP-1 and HaCaT)): residues 33-866 of Q96F46
extracellular part of the human IL-17RA (IL-17RAex): residues 33-320 of Q96F46
UniProt Q16552, residues 24-155: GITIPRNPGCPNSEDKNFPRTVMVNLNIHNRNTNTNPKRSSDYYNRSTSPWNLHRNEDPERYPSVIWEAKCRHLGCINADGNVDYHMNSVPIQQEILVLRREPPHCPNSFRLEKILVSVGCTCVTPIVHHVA

No constants are given. Whether binding was seen depends on the method and setting. Some results given as binding are weak or reduced against the parent protein; the word gives no strength. For some assays here: Where a sequence is shown, tags or fusion partners need not be part of it.

Experiment [1] deals with extracellular part of the human IL-17RA (IL-17RAex) (human) (UniProt Q96F46). Kind of experiment: ELISA; soluble IL-17RAex (purified under native conditions) tested with human IL-17A; Figure S1B; set-up not told further; both purified. A general note: ELISA stands for enzyme-linked immunosorbent assay.
Experiment [2] has the same target. Put plainly: ELISA; competition: purified short His6-ARS-AviTag variants against IL-17A for binding to IL-17RA; Figure S4; which IL-17RA form was coated is not said; both purified.
Experiment [3] deals with Recombinant Human IL-17 RA/IL-17 R Fc Chimera (human) (UniProt Q96F46). Put plainly: ELISA; competition: IL-17RA-IgG chimera coated; 10 nM IL-17A with serially diluted His6-ARS-TolA-AVI in PBSTB; bound IL-17A detected with anti-IL-17A polyclonal antibody and anti-IgG-HRP; both purified.
For experiment [4], the target named is extracellular part of the human IL-17RA (IL-17RAex) (human) (UniProt Q96F46). Put plainly: ELISA; competition: recombinant IL-17RA from E. coli SHuffle coated at 5 µg/mL; 10 nM IL-17A with serially diluted His6-ARS-TolA-AVI in PBSTB; bound IL-17A detected with anti-IL-17 polyclonal antibody; Figure S2; both purified.
The target in experiment [5] is human IL-17RA on the cell surface (human (endogenous in THP-1 and HaCaT)) (UniProt Q96F46). Put plainly: flow cytometry on cells; cell-surface competition: ARS ligands against human IL-17A for binding to THP-1 cells; Figure S5; only the binder purified. On the technique in general: Flow cytometry measures light scatter and fluorescence of single cells or particles in a stream.

In experiment [6] the target is extracellular part of the human IL-17RA (IL-17RAex) (human) (UniProt Q96F46). Kind of experiment: ELISA; IL-17RAex purified from the insoluble fraction in urea, diluted in coating buffer and refolded on the Polysorp plate by washes with PBS, tested with human IL-17A; Figure S1B; both purified.
The target in experiment [7] is human IL-17RA on the cell surface (human (endogenous in THP-1 and HaCaT)) (UniProt Q96F46). Kind of experiment: flow cytometry on cells; 2.5 x 10^5 THP-1 cells with biotinylated His6-ARS-TolA-AVI (10 µg/mL by the legend) for 30 min at 4 °C in cHBSS; streptavidin-PE; only the binder purified.

Consider “Human IL-17A (from UniProt Q16552 24-155) (ligand)”, for which the binding entry in experiment [1], in experiment [2], in experiment [3], in experiment [4], in experiment [5] and in experiment [6] was “binds” each time.
As to LAEAKVLANRELDKYGVSDLYKNMINMALWVTGVKWLIDPILATLP (designed binder, biotin on the AviTag (in vivo biotinylated)) [His6-ARS043-TolA-AVI], in experiment [7], the binding entry is recorded as “binds”.
Turning to LAEAKVLANRELDKYGVSDVYKLINYACPVTWVKWVIDPILAMLP (designed binder, biotin on the AviTag (in vivo biotinylated)) [His6-ARS004-TolA-AVI], the binding result in experiment [7] was “binds”.
On the same count and under the same terms, next, LAEAKVLANRELDKYGVSDMYKNVINIAWWVSIVKYPIDCILALLP (designed binder, biotin on the AviTag (in vivo biotinylated)) [His6-ARS019-TolA-AVI]: “binds”.
LAEAKVLANRELDKYGVSDVYKNLINYAWLVMWVPIDAILALLP (designed binder, biotin on the AviTag (in vivo biotinylated)) [His6-ARS014-TolA-AVI]: the binding entry in experiment [7] is on record as “binds”.
The same measure, in the same setting: to LAEAKVLANRELDKYGVSDVYKLINMALYVTGVKPWIDVILAVLP (designed binder, biotin on the AviTag (in vivo biotinylated)) [His6-ARS012-TolA-AVI] belongs “binds”.
